Laboratory results published in paper PMC5515849.
Results are given in words; binding and its absence hold for the method and conditions named. Binding seen in cells or lysates may run through a third protein. Some results given as binding are weak or reduced against the parent protein; the word gives no strength.

Target: GST-RBD (amino acids 1-149 of Raf-1, Ras-binding domain, fused to GST) (UniProt P04049)
Assay: pull-down; yeast whole cell extract incubated with GST-RBD-bound glutathione beads for 4 h, washed, eluted with sample buffer, immunoblot with anti-Ras2; cells grown in YPD with or without caspofungin (2 h), or glucose-starved (SC-D, 2 h); ras2Δ strain as control; only the target purified

- binding: binds
B1: Ras2 (small GTPase), active GTP-bound form (Ras2-GTP) (protein, UniProt P01120 1-322)
chain: MPLNKSNIREYKLVVVGGGGVGKSALTIQLTQSHFVDEYDPTIEDSYRKQVVIDDEVSILDILDTAGQEEYSAMREQYMRNGEGFLLVYSITSKSSLDELMTYYQQILRVKDTDYVPIVVVGNKSDLENEKQVSYQDGLNMAKQMNAPFLETSAKQAINVEEAFYTLARLVRDEGGKYNKTLTENDNSKQTSQDTKGSGANSVPRNSGGHRKMSNAANGKNVNSSTTVVNARNASIESKTGLAGNQATNGKTQTDRTNIDNSTGQAGQANAQSANTVNNRVNNNSKAGQVSNAKQARKQQAAPGGNTSEASKSGSGGCCIIS
